Laboratory results reported in article doi:10.1101/776823.
These are yes or no findings as the source states them, for the method shown. In cells and extracts the contact can be indirect. Some results given as binding are weak or reduced against the parent protein; the word gives no strength.

Amino acid sequences for entries named in this document (tags omitted).
UniProt Q08211: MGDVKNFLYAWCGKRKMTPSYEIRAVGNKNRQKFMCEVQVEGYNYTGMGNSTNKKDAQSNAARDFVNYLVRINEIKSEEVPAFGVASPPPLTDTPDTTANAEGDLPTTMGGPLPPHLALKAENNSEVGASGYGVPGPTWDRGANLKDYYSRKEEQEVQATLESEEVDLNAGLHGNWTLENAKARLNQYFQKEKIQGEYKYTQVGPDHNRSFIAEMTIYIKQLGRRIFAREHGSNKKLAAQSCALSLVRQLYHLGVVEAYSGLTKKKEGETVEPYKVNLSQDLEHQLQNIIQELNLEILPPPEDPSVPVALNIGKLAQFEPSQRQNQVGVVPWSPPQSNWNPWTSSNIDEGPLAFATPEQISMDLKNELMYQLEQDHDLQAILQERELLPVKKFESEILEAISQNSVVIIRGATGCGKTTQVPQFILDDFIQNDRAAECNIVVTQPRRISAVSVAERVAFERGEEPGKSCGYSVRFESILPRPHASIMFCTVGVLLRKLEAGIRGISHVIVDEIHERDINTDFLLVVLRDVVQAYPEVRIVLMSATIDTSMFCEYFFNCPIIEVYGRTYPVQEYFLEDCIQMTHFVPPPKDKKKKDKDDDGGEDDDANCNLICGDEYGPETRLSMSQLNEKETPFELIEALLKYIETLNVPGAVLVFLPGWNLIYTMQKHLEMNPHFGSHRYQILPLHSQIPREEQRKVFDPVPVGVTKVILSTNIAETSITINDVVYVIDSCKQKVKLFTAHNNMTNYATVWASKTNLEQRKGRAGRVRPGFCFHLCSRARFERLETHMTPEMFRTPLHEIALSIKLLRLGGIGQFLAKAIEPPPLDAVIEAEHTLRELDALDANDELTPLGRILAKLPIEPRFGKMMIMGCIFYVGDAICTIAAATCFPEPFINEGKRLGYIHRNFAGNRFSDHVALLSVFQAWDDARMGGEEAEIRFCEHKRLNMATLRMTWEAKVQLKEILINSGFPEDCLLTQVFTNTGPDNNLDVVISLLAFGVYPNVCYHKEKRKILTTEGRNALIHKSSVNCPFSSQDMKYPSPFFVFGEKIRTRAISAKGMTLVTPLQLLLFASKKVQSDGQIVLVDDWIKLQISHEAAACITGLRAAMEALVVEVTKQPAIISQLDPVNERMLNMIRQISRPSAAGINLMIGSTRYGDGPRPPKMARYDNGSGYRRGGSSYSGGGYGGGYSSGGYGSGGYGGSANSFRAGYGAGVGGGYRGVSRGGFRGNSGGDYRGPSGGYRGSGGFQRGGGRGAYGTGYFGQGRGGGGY

Biological target: GFP-DHX9 (UniProt Q08211)
Assay: co-IP

B1: USP42 (enzyme, UniProt Q9H9J4 1-1324)
chain: MTIVDKASESSDPSAYQNQPGSSEAVSPGDMDAGSASWGAVSSLNDVSNHTLSLGPVPGAVVYSSSSVPDKSKPSPQKDQALGDGIAPPQKVLFPSEKICLKWQQTHRVGAGLQNLGNTCFANAALQCLTYTPPLANYMLSHEHSKTCHAEGFCMMCTMQAHITQALSNPGDVIKPMFVINEMRRIARHFRFGNQEDAHEFLQYTVDAMQKACLNGSNKLDRHTQATTLVCQIFGGYLRSRVKCLNCKGVSDTFDPYLDITLEIKAAQSVNKALEQFVKPEQLDGENSYKCSKCKKMVPASKRFTIHRSSNVLTLSLKRFANFTGGKIAKDVKYPEYLDIRPYMSQPNGEPIVYVLYAVLVHTGFNCHAGHYFCYIKASNGLWYQMNDSIVSTSDIRSVLSQQAYVLFYIRSHDVKNGGELTHPTHSPGQSSPRPVISQRVVTNKQAAPGFIGPQLPSHMIKNPPHLNGTGPLKDTPSSSMSSPNGNSSVNRASPVNASASVQNWSVNRSSVIPEHPKKQKITISIHNKLPVRQCQSQPNLHSNSLENPTKPVPSSTITNSAVQSTSNASTMSVSSKVTKPIPRSESCSQPVMNGKSKLNSSVLVPYGAESSEDSDEESKGLGKENGIGTIVSSHSPGQDAEDEEATPHELQEPMTLNGANSADSDSDPKENGLAPDGASCQGQPALHSENPFAKANGLPGKLMPAPLLSLPEDKILETFRLSNKLKGSTDEMSAPGAERGPPEDRDAEPQPGSPAAESLEEPDAAAGLSSTKKAPPPRDPGTPATKEGAWEAMAVAPEEPPPSAGEDIVGDTAPPDLCDPGSLTGDASPLSQDAKGMIAEGPRDSALAEAPEGLSPAPPARSEEPCEQPLLVHPSGDHARDAQDPSQSLGAPEAAERPPAPVLDMAPAGHPEGDAEPSPGERVEDAAAPKAPGPSPAKEKIGSLRKVDRGHYRSRRERSSSGEPARESRSKTEGHRHRRRRTCPRERDRQDRHAPEHHPGHGDRLSPGERRSLGRCSHHHSRHRSGVELDWVRHHYTEGERGWGREKFYPDRPRWDRCRYYHDRYALYAARDWKPFHGGREHERAGLHERPHKDHNRGRRGCEPARERERHRPSSPRAGAPHALAPHPDRFSHDRTALVAGDNCNLSDRFHEHENGKSRKRRHDSVENSDSHVEKKARRSEQKDPLEEPKAKKHKKSKKKKKSKDKHRDRDSRHQQDSDLSAACSDADLHRHKKKKKKKKRHSRKSEDFVKDSELHLPRVTSLETVAQFRRAQGGFPLSGGPPLEGVGPFREKTKHLRMESRDDRCRLFEYGQGKRRYLELGR
  binding: binds
